Results from paper PMC9409320.
For at least one entry, the source does not settle the construct or the ends of the probe. Where cells or extracts were used, other partners may take part. At least one verdict was read from the data and is not stated in words by the source.

System: Runx2
Assay: DAPA (streptavidin pull-down, immunoblot)
Conditions: DAPA: HEK293 lysate (500-1000 ug) with 1 uL biotinylated probe overnight, washes in 1x annealing buffer, 1x gel shift buffer and PBS, protein in a lysate after overexpression, protein details: Myc (pCS4-3Myc), label: 5' biotin on both strands

## GCAAGGCCACGTGGAGGACACGGG (double strand) [OSE2 biotinylated probe]
Increasing co-expressed HA-CypA, Runx2 binding increases with CypA amount
  binding result: binds
Without co-expressed CypA
  binding result: binds
